These results are taken from paper PMC5405935, “Role of Kif15 and its novel mitotic partner KBP in K-fiber dynamics and chromosome alignment” (PLoS ONE, 2017).

The target in assay [1] is T1, KBP (endogenous) (human (endogenous in HEK293T)), Q96EK5.
T1 chain: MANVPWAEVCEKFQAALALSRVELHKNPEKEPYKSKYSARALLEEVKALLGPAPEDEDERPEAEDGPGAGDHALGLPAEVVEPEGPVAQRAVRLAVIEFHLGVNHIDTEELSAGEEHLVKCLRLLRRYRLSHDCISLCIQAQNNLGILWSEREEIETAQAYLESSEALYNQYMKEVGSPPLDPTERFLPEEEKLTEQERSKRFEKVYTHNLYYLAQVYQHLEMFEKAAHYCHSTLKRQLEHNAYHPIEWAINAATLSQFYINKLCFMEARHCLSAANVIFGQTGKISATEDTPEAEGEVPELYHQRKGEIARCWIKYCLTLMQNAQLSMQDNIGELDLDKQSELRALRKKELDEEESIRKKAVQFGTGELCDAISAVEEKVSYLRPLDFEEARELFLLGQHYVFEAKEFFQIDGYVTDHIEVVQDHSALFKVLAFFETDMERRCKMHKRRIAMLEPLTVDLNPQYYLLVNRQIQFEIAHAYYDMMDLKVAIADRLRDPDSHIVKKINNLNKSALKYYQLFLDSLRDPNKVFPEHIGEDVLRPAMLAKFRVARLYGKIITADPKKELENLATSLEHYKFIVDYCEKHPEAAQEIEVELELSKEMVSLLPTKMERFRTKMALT
Put plainly: co-IP; anti-KBP antibody on protein-A dynabeads, 2 h at 4°C, lysate of HEK293T cells synchronized in mitosis; endogenous proteins; immunoblot. To be noted: remark: other sources report otherwise. On the technique in general: A western blot detects proteins with antibodies after separation by electrophoresis.

Assay [2] addresses T2, Flag-tagged Kif15 (full length, residues 1-1388) (human), Q9NS87.
T2 chain: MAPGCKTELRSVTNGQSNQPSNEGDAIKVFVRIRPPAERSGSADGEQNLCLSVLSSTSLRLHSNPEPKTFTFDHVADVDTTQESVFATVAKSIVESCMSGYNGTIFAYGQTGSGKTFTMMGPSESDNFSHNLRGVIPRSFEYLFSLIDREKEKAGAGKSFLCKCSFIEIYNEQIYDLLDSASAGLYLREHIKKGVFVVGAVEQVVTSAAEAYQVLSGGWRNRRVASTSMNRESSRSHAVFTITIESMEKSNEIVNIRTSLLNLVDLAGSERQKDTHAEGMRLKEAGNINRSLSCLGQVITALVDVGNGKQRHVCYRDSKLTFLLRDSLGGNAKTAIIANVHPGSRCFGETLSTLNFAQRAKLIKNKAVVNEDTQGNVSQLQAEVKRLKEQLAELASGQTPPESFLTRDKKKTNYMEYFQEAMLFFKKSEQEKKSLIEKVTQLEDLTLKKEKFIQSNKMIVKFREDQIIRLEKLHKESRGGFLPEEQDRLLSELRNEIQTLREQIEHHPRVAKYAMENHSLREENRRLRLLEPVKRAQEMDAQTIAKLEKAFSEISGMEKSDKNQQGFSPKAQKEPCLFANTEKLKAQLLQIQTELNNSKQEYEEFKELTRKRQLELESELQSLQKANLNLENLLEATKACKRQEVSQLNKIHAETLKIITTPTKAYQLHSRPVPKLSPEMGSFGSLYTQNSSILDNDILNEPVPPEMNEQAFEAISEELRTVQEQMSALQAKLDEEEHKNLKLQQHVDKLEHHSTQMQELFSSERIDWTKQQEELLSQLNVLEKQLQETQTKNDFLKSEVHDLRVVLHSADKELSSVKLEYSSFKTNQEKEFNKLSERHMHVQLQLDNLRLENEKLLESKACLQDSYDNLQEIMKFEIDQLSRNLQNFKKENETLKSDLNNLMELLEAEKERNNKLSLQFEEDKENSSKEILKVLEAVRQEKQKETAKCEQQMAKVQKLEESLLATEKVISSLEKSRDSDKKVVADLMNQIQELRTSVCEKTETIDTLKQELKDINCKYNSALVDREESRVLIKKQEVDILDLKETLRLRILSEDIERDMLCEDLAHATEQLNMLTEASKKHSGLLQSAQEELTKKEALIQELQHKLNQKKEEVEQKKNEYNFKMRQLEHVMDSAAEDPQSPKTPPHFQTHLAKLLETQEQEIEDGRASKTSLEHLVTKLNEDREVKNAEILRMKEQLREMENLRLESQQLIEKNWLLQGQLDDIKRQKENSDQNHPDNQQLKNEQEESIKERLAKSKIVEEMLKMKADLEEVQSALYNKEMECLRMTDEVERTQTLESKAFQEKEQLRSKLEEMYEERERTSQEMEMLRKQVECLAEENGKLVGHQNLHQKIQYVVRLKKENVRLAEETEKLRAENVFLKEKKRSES
Put plainly: co-IP; anti-Flag M2 magnetic beads, 30 min at 4°C, lysates of HEK293T cells synchronized in mitosis (thymidine, nocodazole, shake off); stable or transient Flag-Kif15 or Flag-Kif15 truncations, GFP-KBP co-transfected where named; also with or without λ-phosphatase; immunoblot. To be noted: remark: other sources report otherwise.

These are yes or no findings as the source states them, for the method shown. Binding seen in cells or lysates may run through a third protein. Some results given as binding are weak or reduced against the parent protein; the word gives no strength. For some assays here: Tags and fused reporters may be left off the sequences shown.

B1: Kif15 (endogenous), Q9NS87 1-1388 (protein)
chain: MAPGCKTELRSVTNGQSNQPSNEGDAIKVFVRIRPPAERSGSADGEQNLCLSVLSSTSLRLHSNPEPKTFTFDHVADVDTTQESVFATVAKSIVESCMSGYNGTIFAYGQTGSGKTFTMMGPSESDNFSHNLRGVIPRSFEYLFSLIDREKEKAGAGKSFLCKCSFIEIYNEQIYDLLDSASAGLYLREHIKKGVFVVGAVEQVVTSAAEAYQVLSGGWRNRRVASTSMNRESSRSHAVFTITIESMEKSNEIVNIRTSLLNLVDLAGSERQKDTHAEGMRLKEAGNINRSLSCLGQVITALVDVGNGKQRHVCYRDSKLTFLLRDSLGGNAKTAIIANVHPGSRCFGETLSTLNFAQRAKLIKNKAVVNEDTQGNVSQLQAEVKRLKEQLAELASGQTPPESFLTRDKKKTNYMEYFQEAMLFFKKSEQEKKSLIEKVTQLEDLTLKKEKFIQSNKMIVKFREDQIIRLEKLHKESRGGFLPEEQDRLLSELRNEIQTLREQIEHHPRVAKYAMENHSLREENRRLRLLEPVKRAQEMDAQTIAKLEKAFSEISGMEKSDKNQQGFSPKAQKEPCLFANTEKLKAQLLQIQTELNNSKQEYEEFKELTRKRQLELESELQSLQKANLNLENLLEATKACKRQEVSQLNKIHAETLKIITTPTKAYQLHSRPVPKLSPEMGSFGSLYTQNSSILDNDILNEPVPPEMNEQAFEAISEELRTVQEQMSALQAKLDEEEHKNLKLQQHVDKLEHHSTQMQELFSSERIDWTKQQEELLSQLNVLEKQLQETQTKNDFLKSEVHDLRVVLHSADKELSSVKLEYSSFKTNQEKEFNKLSERHMHVQLQLDNLRLENEKLLESKACLQDSYDNLQEIMKFEIDQLSRNLQNFKKENETLKSDLNNLMELLEAEKERNNKLSLQFEEDKENSSKEILKVLEAVRQEKQKETAKCEQQMAKVQKLEESLLATEKVISSLEKSRDSDKKVVADLMNQIQELRTSVCEKTETIDTLKQELKDINCKYNSALVDREESRVLIKKQEVDILDLKETLRLRILSEDIERDMLCEDLAHATEQLNMLTEASKKHSGLLQSAQEELTKKEALIQELQHKLNQKKEEVEQKKNEYNFKMRQLEHVMDSAAEDPQSPKTPPHFQTHLAKLLETQEQEIEDGRASKTSLEHLVTKLNEDREVKNAEILRMKEQLREMENLRLESQQLIEKNWLLQGQLDDIKRQKENSDQNHPDNQQLKNEQEESIKERLAKSKIVEEMLKMKADLEEVQSALYNKEMECLRMTDEVERTQTLESKAFQEKEQLRSKLEEMYEERERTSQEMEMLRKQVECLAEENGKLVGHQNLHQKIQYVVRLKKENVRLAEETEKLRAENVFLKEKKRSES
For B1, in assay [1], the binding result is reported as “binds”.

B2: KBP (endogenous), Q96EK5 1-621 (protein)
chain: MANVPWAEVCEKFQAALALSRVELHKNPEKEPYKSKYSARALLEEVKALLGPAPEDEDERPEAEDGPGAGDHALGLPAEVVEPEGPVAQRAVRLAVIEFHLGVNHIDTEELSAGEEHLVKCLRLLRRYRLSHDCISLCIQAQNNLGILWSEREEIETAQAYLESSEALYNQYMKEVGSPPLDPTERFLPEEEKLTEQERSKRFEKVYTHNLYYLAQVYQHLEMFEKAAHYCHSTLKRQLEHNAYHPIEWAINAATLSQFYINKLCFMEARHCLSAANVIFGQTGKISATEDTPEAEGEVPELYHQRKGEIARCWIKYCLTLMQNAQLSMQDNIGELDLDKQSELRALRKKELDEEESIRKKAVQFGTGELCDAISAVEEKVSYLRPLDFEEARELFLLGQHYVFEAKEFFQIDGYVTDHIEVVQDHSALFKVLAFFETDMERRCKMHKRRIAMLEPLTVDLNPQYYLLVNRQIQFEIAHAYYDMMDLKVAIADRLRDPDSHIVKKINNLNKSALKYYQLFLDSLRDPNKVFPEHIGEDVLRPAMLAKFRVARLYGKIITADPKKELENLATSLEHYKFIVDYCEKHPEAAQEIEVELELSKEMVSLLPTKMERFRTKMALT
On to B2, for which the binding result in assay [2] is recorded as “binds”.
